According to article PMC9054915 (Cancer Chemotherapy and Pharmacology, 2022):

Assay: MDCK permeability
Settings: dog
Text: The physiochemical and ADME parameters used for the development of the initial PBPK model are summarized Table S1. […] The volume of distribution at steady state (Vss) was obtained from the clinical absolute bioavailability study (ClinicalTrials.gov Identifier: NCT02390492). A tissue to plasma partition coefficient (Kp) scalar was applied to match the predicted Vss (predicted with in Simcyp using Method 3, Rodgers et al. + ion membrane permeability) to the observed value. The IV clearance determined in the clinical absolute bioavailability study was used (ClinicalTrials.gov Identifier: NCT02390492). […] The CYP3A4 inhibition parameters for competitive inhibition and TDI determined using in vitro assays (Data on file) were incorporated into the model.

Papp: 0.1 ×10⁻⁶ cm/s
Structure (SMILES): CC(C)NCC(O)COc1ccc(CC(N)=O)cc1 (stereo not shown) [atenolol]
